Results on one molecule are retold here after publication PMC8523720.

These are yes or no findings as the source states them, for the method shown. In cells and extracts the contact can be indirect. Some results given as binding are weak or reduced against the parent protein; the word gives no strength.

The target in this experiment is GRP78 (human (endogenous in Huh7)), P11021. Put plainly: co-IP; immunoprecipitates from lysates of sorafenib-resistant Huh7 cells, endogenous proteins, immunoblot; GRP78-IRE1α tested with or without RCN1 silencing. As to conditions: remark: other sources report otherwise.

B1: Reticulocalbin 1 (RCN1), Q15293 30-331 (protein)
chain: KPTVRKERVVRPDSELGERPPEDNQSFQYDHEAFLGKEDSKTFDQLTPDESKERLGKIVDRIDNDGDGFVTTEELKTWIKRVQKRYIFDNVAKVWKDYDRDKDDKISWEEYKQATYGYYLGNPAEFHDSSDHHTFKKMLPRDERRFKAADLNGDLTATREEFTAFLHPEEFEHMKEIVVLETLEDIDKNGDGFVDQDEYIADMFSHEENGPEPDWVLSEREQFNEFRDLNKDGKLDKDEIRHWILPQDYDHAQAEARHLVYESDKNKDEKLTKEEILENWNMFVGSQATNYGEDLTKNHDEL
With B1, the binding entry is listed as “binds”.
